Assay results published in US11666558B2, “Methods of treating intraocular pressure with activators of Tie-2” (EyePoint Pharmaceuticals, Inc., priority 2015, dated 2023).
Where “and” joins values, the source holds several entries; their conditions need not be identical. Equal entries are not always repeated. Further values from the same series stand in other lists.

Assay: Ocular tissue concentrations (aqueous humor, vitreous humor, iris, retina, choroid, cornea) after topical ocular, subcutaneous and intravitreal administration
Type: in vivo, New Zealand White rabbits
Conditions: for Conc. (ng/mL) OS / Conc. (ng/g) OS: left eye; for Conc. (ng/mL) OS / Conc. (ng/mL) OD / Conc. (ng/g) OS / Conc. (ng/g) OD: intravitreal 2.5 mg/eye (group 5), individual animals; for Conc. (ng/mL) OD / Conc. (ng/g) OD: right eye
Method: To measure the concentration of Compound 1 in plasma and ocular tissues following topical ocular, subcutaneous, and intravitreal administration, New Zealand White rabbits were administered Compound 1, and plasma and ocular samples were collected at pre-determined time points. Compound 1 formulations were prepared fresh on each day of dosing.
Ocular tissue samples from both eyes of each animal were collected and weights were recorded. Plasma and ocular tissue sample concentrations of Compound 1 were determined by LC-MS/MS.
New Zealand White rabbits weighing 2.5 to 3.5 kg were used on this study. Rabbits were housed one per cage. Animals were not fasted and only healthy animals with no ocular illness were used. Two rabbits per group were sacrificed at each of four ocular tissue sampling time points for a total of eight rabbits per group.
Animals were anesthetized for ocular (topical) and intravitreal dosing following the 12IA7 IACUC protocol. Each rabbit received a bolus dose of test formulation either via topical ocular administration 3 times daily on Days 1 and 2 (at 0, 6, and 12 hours), and once on Day 3 (at 0 hours) into both eyes; via intravitreal administration into both eyes once on Day 1 (at 0 hours); or via subcutaneous administration 2 times daily on Days 1 and 2 (at 0 and 8 hours) and once daily on Day 3 (at 0 hours). Doses were given within an approximately 1 hour window each day where applicable.
On Day 1, for intravitreal administration, or on Day 3, for topical ocular and subcutaneous administration, at the appropriate ocular tissue collection time points, animals were euthanized and both eyes were enucleated immediately. Following enucleation, each eye was rinsed with phosphate-buffered saline. Ocular tissue samples from both eyes of each animal were collected at predetermined time points and weights were recorded. All the samples were frozen immediately on dry ice, and stored at −60° C. to −80° C. pending bioanalysis.
An LC-MS/MS method was developed for the determination of Compound 1 in rabbit aqueous tissues (plasma, aqueous and vitreous humor) and solid ocular tissue samples. A pre-study standard curve was analyzed to determine the specificity, range, and lower limit of quantitation of the method. Plasma and tissue homogenate study samples were extracted and analyzed. All the samples were treated identically to the standards.
One eight-point standard curve was used in each analytical batch. To be accepted, each batch must have had at least five of eight standards with accuracy within ±20% of nominal, except at the lower limit of quantification (LLOQ), where ±25% was acceptable.
Concentration versus time data is plotted in FIGS. 3-16. All data are expressed as ng/g of the free drug. Samples that were below the limit of quantitation (0.2 ng/mL) were not used in the calculation of averages.

[1] = Choroid homogenate, 0.5 hr, sodium salt, subcutaneous 5 mg/kg/dose, Group 2
[2] = Choroid homogenate, 1 hr, free acid, subcutaneous 5 mg/kg/dose, Group 3
[3] = Choroid homogenate, 1 hr, sodium salt, subcutaneous 5 mg/kg/dose, Group 2
[4] = Choroid homogenate, 2 hr, free acid, subcutaneous 5 mg/kg/dose, Group 3
[5] = Choroid homogenate, 24 hr, sodium salt, intravitreal 2.5 mg/eye, Group 4
[6] = Choroid homogenate, 48 hr, sodium salt, intravitreal 2.5 mg/eye, Group 4
[7] = Choroid, 0.5 hr, sodium salt, subcutaneous 5 mg/kg/dose, Group 2
[8] = Choroid, 1 hr, free acid, subcutaneous 5 mg/kg/dose, Group 3
[9] = Choroid, 1 hr, sodium salt, subcutaneous 5 mg/kg/dose, Group 2
[10] = Choroid, 2 hr, free acid, subcutaneous 5 mg/kg/dose, Group 3
[11] = Choroid, 24 hr, sodium salt, intravitreal 2.5 mg/eye, Group 4
[12] = Choroid, 48 hr, sodium salt, intravitreal 2.5 mg/eye, Group 4
[13] = Cornea homogenate, 1 hr, sodium salt, subcutaneous 5 mg/kg/dose, Group 2
[14] = Cornea homogenate, 4 hr, sodium salt, subcutaneous 5 mg/kg/dose, Group 2
[15] = Cornea homogenate, 6.0 hr, sodium salt, intravitreal 2.5 mg/eye, Group 4
[16] = Cornea homogenate, 24 hr, sodium salt, intravitreal 2.5 mg/eye, Group 4
[17] = Cornea homogenate, 48 hr, sodium salt, intravitreal 2.5 mg/eye, Group 4
[18] = Cornea, 4 hr, sodium salt, subcutaneous 5 mg/kg/dose, Group 2
[19] = Cornea, 6.0 hr, sodium salt, intravitreal 2.5 mg/eye, Group 4
[20] = Cornea, 24 hr, sodium salt, intravitreal 2.5 mg/eye, Group 4
[21] = Cornea, 48 hr, sodium salt, intravitreal 2.5 mg/eye, Group 4
[22] = Iris homogenate, 1 hr, sodium salt, subcutaneous 5 mg/kg/dose, Group 2
[23] = Iris homogenate, 2 hr, free acid, subcutaneous 5 mg/kg/dose, Group 3
[24] = Iris homogenate, 4 hr, free acid, subcutaneous 5 mg/kg/dose, Group 3
[25] = Iris homogenate, 6.0 hr, sodium salt, intravitreal 2.5 mg/eye, Group 4

Choroid Conc. (ng/mL) OD [1]: 25.6 ng/mL
Choroid Conc. (ng/mL) OS (Choroid homogenate, 0.5 hr, free acid, subcutaneous 5 mg/kg/dose, Group 3): 14.0 ng/mL
Choroid Conc. (ng/mL) OS [1]: 21.4 ng/mL
Choroid Conc. (ng/mL) OD [2]: 8.65 ng/mL
Choroid Conc. (ng/mL) OD [3]: 19.2 ng/mL
Choroid Conc. (ng/mL) OS [2]: 7.60 ng/mL
Choroid Conc. (ng/mL) OS [3]: 11.4 ng/mL
Choroid Conc. (ng/mL) OD [4]: 4.26 ng/mL
Choroid Conc. (ng/mL) OS [4]: 4.94 ng/mL
Choroid Conc. (ng/mL) OD (Choroid homogenate, 4 hr, free acid, subcutaneous 5 mg/kg/dose, Group 3): 4.65 ng/mL
Choroid Conc. (ng/mL) OD (Choroid homogenate, 4 hr, sodium salt, subcutaneous 5 mg/kg/dose, Group 2): 1.50 ng/mL
Conc. (ng/mL) OS (Choroid homogenate, 6.0 hr): 69700 ng/mL
Conc. (ng/mL) OD (Choroid homogenate, 6.0 hr): 32800 ng/mL and 75400 ng/mL
Choroid Conc. (ng/mL) OD [5]: 18400 ng/mL
Choroid Conc. (ng/mL) OS [5]: 10400 ng/mL
Conc. (ng/mL) OS (Choroid homogenate, 24 hr): 43500 ng/mL
Conc. (ng/mL) OD (Choroid homogenate, 24 hr): 15200 ng/mL and 57500 ng/mL
Choroid Conc. (ng/mL) OD [6]: 4040 ng/mL
Choroid Conc. (ng/mL) OS [6]: 2790 ng/mL
Conc. (ng/mL) OS (Choroid homogenate, 48 hr): 14800 ng/mL
Conc. (ng/mL) OD (Choroid homogenate, 48 hr): 9580 ng/mL
Choroid Conc. (ng/mL) OS (Choroid homogenate, 72 hr, sodium salt, intravitreal 2.5 mg/eye, Group 4): 290 ng/mL
Conc. (ng/mL) OS (Choroid homogenate, 72 hr): 2910 ng/mL
Conc. (ng/mL) OD (Choroid homogenate, 72 hr): 2270 ng/mL
Choroid Conc. (ng/g) OD [7]: 282 ng/g
Choroid Conc. (ng/g) OS (Choroid, 0.5 hr, free acid, subcutaneous 5 mg/kg/dose, Group 3): 154 ng/g
Choroid Conc. (ng/g) OS [7]: 235 ng/g
Choroid Conc. (ng/g) OD [8]: 95.2 ng/g
Choroid Conc. (ng/g) OD [9]: 211 ng/g
Choroid Conc. (ng/g) OS [8]: 83.6 ng/g
Choroid Conc. (ng/g) OS [9]: 125 ng/g
Choroid Conc. (ng/g) OD [10]: 46.9 ng/g
Choroid Conc. (ng/g) OS [10]: 54.3 ng/g
Choroid Conc. (ng/g) OD (Choroid, 4 hr, free acid, subcutaneous 5 mg/kg/dose, Group 3): 51.2 ng/g
Choroid Conc. (ng/g) OD (Choroid, 4 hr, sodium salt, subcutaneous 5 mg/kg/dose, Group 2): 16.5 ng/g
Conc. (ng/g) OS (Choroid, 6.0 hr): 766700 ng/g
Conc. (ng/g) OD (Choroid, 6.0 hr): 360800 ng/g and 829400 ng/g
Choroid Conc. (ng/g) OD [11]: 202400 ng/g
Choroid Conc. (ng/g) OS [11]: 114400 ng/g
Conc. (ng/g) OS (Choroid, 24 hr): 478500 ng/g
Conc. (ng/g) OD (Choroid, 24 hr): 167200 ng/g and 632500 ng/g
Choroid Conc. (ng/g) OD [12]: 44440 ng/g
Choroid Conc. (ng/g) OS [12]: 30690 ng/g
Conc. (ng/g) OD (Choroid, 48 hr): 105380 ng/g
Choroid Conc. (ng/g) OS (Choroid, 72 hr, sodium salt, intravitreal 2.5 mg/eye, Group 4): 3190 ng/g
Conc. (ng/g) OS (Choroid, 72 hr): 32010 ng/g
Conc. (ng/g) OD (Choroid, 72 hr): 24970 ng/g
Cornea Conc. (ng/mL) OS (Cornea homogenate, 0.5 hr, sodium salt, subcutaneous 5 mg/kg/dose, Group 2): 1.94 ng/mL
Cornea Conc. (ng/mL) OD [13]: 2.13 ng/mL
Cornea Conc. (ng/mL) OS [13]: 2.30 ng/mL
Cornea Conc. (ng/mL) OD (Cornea homogenate, 4 hr, free acid, subcutaneous 5 mg/kg/dose, Group 3): 0.847 ng/mL
Cornea Conc. (ng/mL) OD [14]: 0.873 ng/mL
Cornea Conc. (ng/mL) OS [14]: 1.26 ng/mL
Cornea Conc. (ng/mL) OD [15]: 6710 ng/mL
Cornea Conc. (ng/mL) OS [15]: 6030 ng/mL
Conc. (ng/mL) OS (Cornea homogenate, 6.0 hr): 3140 ng/mL and 1180 ng/mL
Conc. (ng/mL) OD (Cornea homogenate, 6.0 hr): 7610 ng/mL
Cornea Conc. (ng/mL) OD [16]: 2940 ng/mL
Cornea Conc. (ng/mL) OS [16]: 1930 ng/mL
Conc. (ng/mL) OS (Cornea homogenate, 24 hr): 1050 ng/mL
Conc. (ng/mL) OD (Cornea homogenate, 24 hr): 2520 ng/mL
Cornea Conc. (ng/mL) OD [17]: 538 ng/mL
Cornea Conc. (ng/mL) OS [17]: 487 ng/mL
Conc. (ng/mL) OS (Cornea homogenate, 48 hr): 571 ng/mL
Conc. (ng/mL) OD (Cornea homogenate, 48 hr): 384 ng/mL
Conc. (ng/mL) OS (Cornea homogenate, 72 hr): 117 ng/mL and 45.3 ng/mL
Conc. (ng/mL) OD (Cornea homogenate, 72 hr): 37.7 ng/mL and 77.2 ng/mL
Cornea Conc. (ng/g) OS (Cornea, 0.5 hr, sodium salt, subcutaneous 5 mg/kg/dose, Group 2): 21.3 ng/g
Cornea Conc. (ng/g) OD (Cornea, 1 hr, sodium salt, subcutaneous 5 mg/kg/dose, Group 2): 23.4 ng/g
Cornea Conc. (ng/g) OD (Cornea, 4 hr, free acid, subcutaneous 5 mg/kg/dose, Group 3): 9.32 ng/g
Cornea Conc. (ng/g) OD [18]: 9.60 ng/g
Cornea Conc. (ng/g) OS [18]: 13.9 ng/g
Cornea Conc. (ng/g) OD [19]: 73810 ng/g
Cornea Conc. (ng/g) OS [19]: 66330 ng/g
Conc. (ng/g) OS (Cornea, 6.0 hr): 34540 ng/g and 12980 ng/g
Conc. (ng/g) OD (Cornea, 6.0 hr): 83710 ng/g
Cornea Conc. (ng/g) OD [20]: 32340 ng/g
Cornea Conc. (ng/g) OS [20]: 21230 ng/g
Conc. (ng/g) OS (Cornea, 24 hr): 11550 ng/g
Conc. (ng/g) OD (Cornea, 24 hr): 27720 ng/g
Cornea Conc. (ng/g) OD [21]: 5918 ng/g
Cornea Conc. (ng/g) OS [21]: 5357 ng/g
Conc. (ng/g) OS (Cornea, 48 hr): 6281 ng/g
Conc. (ng/g) OD (Cornea, 48 hr): 4224 ng/g
Conc. (ng/g) OS (Cornea, 72 hr): 1287 ng/g and 498 ng/g
Conc. (ng/g) OD (Cornea, 72 hr): 415 ng/g and 849 ng/g
Iris Conc. (ng/mL) OD (Iris homogenate, 0.5 hr, sodium salt, subcutaneous 5 mg/kg/dose, Group 2): 41.3 ng/mL
Iris Conc. (ng/mL) OS (Iris homogenate, 0.5 hr, free acid, subcutaneous 5 mg/kg/dose, Group 3): 3.54 ng/mL
Iris Conc. (ng/mL) OD [22]: 9.02 ng/mL
Iris Conc. (ng/mL) OS (Iris homogenate, 1 hr, free acid, subcutaneous 5 mg/kg/dose, Group 3): 3.12 ng/mL
Iris Conc. (ng/mL) OS [22]: 5.13 ng/mL
Iris Conc. (ng/mL) OD [23]: 2.91 ng/mL
Iris Conc. (ng/mL) OS [23]: 1.67 ng/mL
Iris Conc. (ng/mL) OD [24]: 1.63 ng/mL
Iris Conc. (ng/mL) OD (Iris homogenate, 4 hr, sodium salt, subcutaneous 5 mg/kg/dose, Group 2): 3.07 ng/mL
Iris Conc. (ng/mL) OS [24]: 0.794 ng/mL
Iris Conc. (ng/mL) OD [25]: 27800 ng/mL
Iris Conc. (ng/mL) OS [25]: 30600 ng/mL
Conc. (ng/mL) OS (Iris homogenate, 6.0 hr): 12200 ng/mL
SMILES: COC(=O)N[C@@H](Cc1ccccc1)C(=O)N[C@@H](Cc1ccc(NS(=O)(=O)O)cc1)c1csc(-c2cccs2)n1 [Compound 1]
